From article PMC7594455
Results are given in words; binding and its absence hold for the method and conditions named. Some results given as binding are weak or reduced against the parent protein; the word gives no strength.

Target: T1, Ubp8-TAP (yeast (endogenous in yeast cells)) (UniProt P50102)
T1 sequence: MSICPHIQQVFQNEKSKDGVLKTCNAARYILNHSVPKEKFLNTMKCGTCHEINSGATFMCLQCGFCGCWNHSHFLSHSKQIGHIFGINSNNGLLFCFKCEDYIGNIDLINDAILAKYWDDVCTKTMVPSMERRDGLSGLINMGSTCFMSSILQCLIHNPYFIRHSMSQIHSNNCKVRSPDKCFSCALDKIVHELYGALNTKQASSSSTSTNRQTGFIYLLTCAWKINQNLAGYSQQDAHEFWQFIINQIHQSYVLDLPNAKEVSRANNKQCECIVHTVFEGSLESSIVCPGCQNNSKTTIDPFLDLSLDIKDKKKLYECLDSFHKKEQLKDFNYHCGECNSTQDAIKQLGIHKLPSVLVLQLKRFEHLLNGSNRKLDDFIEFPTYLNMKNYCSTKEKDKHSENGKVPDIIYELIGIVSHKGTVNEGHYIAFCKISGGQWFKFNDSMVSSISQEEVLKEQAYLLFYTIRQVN
Experiment: tandem affinity purification with western blot; Ubp8-TAP purified by tandem affinity purification; Spt8 detected by western blot (α-Spt8); strain not told

B1: Spt8 (protein, UniProt P38915 1-602)
chain: MDEVDDILINNQVVDDEEDDEEMLSGLENDSKQDLEGNDDGGEDEEDDDDDDEDDDDDEDEREDDDEQEDDDGEDDAARMDKTATPTNEHQHDEQKAAAAGAGGAGDSGDAVTKIGSEDVKLSDVDGGVGSREASSSTHEASANGEVYEYYKHMLNAAQIADSYNIYPTAAIPIQTHVNALAVSRGLKYLFLGGSDGYIRKYDLLNTLEGKLSLTILQKHSLAESIQNAGILQSYWENEIPQKKSEMKLSANKTDYEPKVSPVHSLEVQSECLFILSGLQNGGITMQGVRYMEGSIAHYFKGRNGHTQIVNILRLNGQEDRFLSGSWDKRLLEWDLQTGDIVNEFKKSRSELSSLEMRPLYSSVDVSGNVNSGKENENADDDMDSLFGDEDEDEKQDAGNEPVETGDGSNGEENKEQISEESLNIVYDESVFMTSGLNGSVHIWDRRMTQSPALSLERGAGVPPWCLSACWGVDGDHVYAGRRNACVEQFDLKMPSKPIHNLKLPSISGPVSCVKAMPNNKHLLCASRDNIRLYNVEIAVDASNSTTKSSKVPFLIVPGHHGGIISNLYLDPTSRFIISTSGNRGWQGNSTDTTLIYDIDLE
  binding: binds
